Experimental data reported in PMC10486081.
These are yes or no findings as the source states them, for the method shown. In cells and extracts the contact can be indirect. Some binding calls cover weakened binding; strength is not graded here. For part of these data: Where a sequence is shown, tags or fusion partners need not be part of it.

Sequences of proteins named here, by UniProt entry; tags and fusion partners are left off.
UniProt O43791: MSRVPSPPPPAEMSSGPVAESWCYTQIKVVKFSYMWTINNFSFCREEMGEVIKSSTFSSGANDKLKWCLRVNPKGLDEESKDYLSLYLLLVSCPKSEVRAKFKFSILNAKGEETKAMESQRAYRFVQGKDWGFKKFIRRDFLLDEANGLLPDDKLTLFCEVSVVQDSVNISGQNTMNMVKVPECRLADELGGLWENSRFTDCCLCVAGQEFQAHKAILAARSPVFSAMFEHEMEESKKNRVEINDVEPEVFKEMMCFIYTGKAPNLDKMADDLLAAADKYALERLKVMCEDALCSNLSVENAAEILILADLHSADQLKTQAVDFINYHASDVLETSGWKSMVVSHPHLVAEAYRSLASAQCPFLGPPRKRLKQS

Assays:
Flag-LATS1, wild type [1] = target: T1, Flag-LATS1, wild type (UniProt O95835); assay: co-IP; Flag-LATS1 (wild type or SBC mutant) and HA-SPOP transfected into 293T cells; Absin Co-IP kit, lysate with antibody 4 °C 12 h, Protein A and Protein G; western blot
T1 sequence: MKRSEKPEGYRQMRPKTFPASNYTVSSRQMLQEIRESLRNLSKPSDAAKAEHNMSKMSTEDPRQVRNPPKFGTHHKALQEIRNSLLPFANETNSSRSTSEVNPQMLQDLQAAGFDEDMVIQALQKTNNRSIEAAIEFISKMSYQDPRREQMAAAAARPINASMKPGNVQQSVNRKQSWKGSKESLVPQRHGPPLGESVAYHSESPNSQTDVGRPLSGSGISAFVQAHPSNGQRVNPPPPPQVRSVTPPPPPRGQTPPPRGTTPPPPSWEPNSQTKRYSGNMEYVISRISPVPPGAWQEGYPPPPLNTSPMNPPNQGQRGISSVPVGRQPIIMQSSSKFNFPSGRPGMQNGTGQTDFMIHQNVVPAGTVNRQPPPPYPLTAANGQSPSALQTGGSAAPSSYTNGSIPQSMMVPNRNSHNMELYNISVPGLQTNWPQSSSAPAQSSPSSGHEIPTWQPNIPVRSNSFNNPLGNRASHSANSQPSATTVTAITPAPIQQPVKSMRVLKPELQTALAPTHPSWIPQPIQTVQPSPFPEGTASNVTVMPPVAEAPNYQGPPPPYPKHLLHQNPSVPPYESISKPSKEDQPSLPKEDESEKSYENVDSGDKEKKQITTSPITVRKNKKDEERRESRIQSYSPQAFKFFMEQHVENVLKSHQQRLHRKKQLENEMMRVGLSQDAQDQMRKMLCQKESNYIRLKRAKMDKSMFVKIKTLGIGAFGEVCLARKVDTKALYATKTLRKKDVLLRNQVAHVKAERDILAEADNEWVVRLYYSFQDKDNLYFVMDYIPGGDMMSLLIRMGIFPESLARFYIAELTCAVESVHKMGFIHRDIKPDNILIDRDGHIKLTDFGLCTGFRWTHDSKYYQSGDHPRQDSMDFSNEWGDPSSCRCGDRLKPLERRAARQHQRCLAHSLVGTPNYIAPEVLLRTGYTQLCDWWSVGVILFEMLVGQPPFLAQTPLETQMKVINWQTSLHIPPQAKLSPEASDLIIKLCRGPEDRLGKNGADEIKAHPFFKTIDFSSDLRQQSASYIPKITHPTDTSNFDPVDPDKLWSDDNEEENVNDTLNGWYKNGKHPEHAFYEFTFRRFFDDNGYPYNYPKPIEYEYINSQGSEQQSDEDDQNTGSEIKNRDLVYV

Flag-LATS1, wild type [2] = target: T1, Flag-LATS1, wild type; assay: co-IP; Flag-LATS1 (wild type or SBC mutant) and HA-SPOP transfected into BCa cells; western blot
[3] = target: T2, LATS1 (Large tumor suppressor kinase 1), endogenous in bladder cancer cells (human (endogenous in T24)) (UniProt O95835); assay: co-IP; bladder cancer cells, control and circXRN2 knockdown; Absin Co-IP kit, lysate with antibody 4 °C 12 h, Protein A and Protein G
T2 sequence: T1 sequence

| binding (Flag-LATS1, wild type [1]) | binding (Flag-LATS1, wild type [2]) | binding [3] | Substance |
| --- | --- | --- | --- |
| binds | binds | – | HA-SPOP (from UniProt O43791 1-374) |
| – | – | binds | SPOP (speckle-type POZ, E3 ubiquitin ligase adapter), endogenous in bladder cancer cells (from UniProt O43791 1-374) |
